Measured values reported in patent US11485657B2, “Biological remediation of groundwater using an algal photobioreactor system” (priority 2019, dated 2022).

Tests used:
C. subellipsoidea [1] = assay: Time-course degradation of organophosphates in growing C. subellipsoidea cultures, GC-MS; format: cell-based, Coccomyxa subellipsoidea; conditions: for level of organophosphate remaining in culture: 0.15 mg/mL f.c., between days 4 and 6 in culture, cell-dependent
C. subellipsoidea [2] = assay: Paraoxon degradation in heat-treated C. subellipsoidea cultures (spectrophotometric); format: cell-based, Coccomyxa subellipsoidea

CCOP(=S)(OCC)Oc1cc(C)nc(C(C)C)n1 [diazinon]
level of organophosphate remaining in culture (C. subellipsoidea [1]): essentially undetectable levels

CCOC(=O)CC(SP(=S)(OC)OC)C(=O)OCC (stereo not shown) [malathion]
level of organophosphate remaining in culture (C. subellipsoidea [1]): essentially undetectable levels

CCOP(=O)(OCC)Oc1ccc([N+](=O)[O-])cc1 [paraoxon]
level of paraoxon remaining in culture (C. subellipsoidea [1]; paraoxon 0.17 mg/mL added, after 6 days, GC-MS): < 0.025 mg/mL
paraoxon degradation by heat-treated cultures in the dark (C. subellipsoidea [2]; 100° C. for 10 min, dark, 12 h): unable to degrade paraoxon
paraoxon degradation by heat-treated cultures in the light (C. subellipsoidea [2]; 100° C. for 10 min, light, 12 h): degraded paraoxon
paraoxon degradation in heat-treated versus control cultures (C. subellipsoidea [2]; 100° C. for 10 min, paraoxon 0.25 mg/mL, light, after 24 h): increased paraoxon degradation
paraoxon degradation in heat-treated non-oxidized samples (C. subellipsoidea [2]; paraoxon 0.25 mg/mL, light, p-nitrophenol monitored at 24 h and 48 h, versus samples oxidized 12 h): rapidly degraded
